According to patent publication US4659712A, “Fodder additive and a process for the preparation” (Richter Gedeon Vegyeszeti Gyar Rt., priority 1984, dated 1987):
Several values for one entry are separate records, joined by “and”; a condition that tells them apart may be missing. Equal entries are not always repeated.

Test: Organoleptic examination (boiling test) of muscle and liver tissues of pigs treated with Carbadox and flumecinol
Assay type: in vivo
Set-up: key to visual observation / organoleptic (odor) score: 1: negative; 2: slight strange (indeterminable) odor; 3: some strange (slight medicamentlike) odor; 4: definite strange (more expressed medicament) odor
Details: for visual observation / organoleptic (odor) score: positive control (Carbadox, no flumecinol), individual animal
Method: Tests were carried out at a large-scale pig farm, where 25 mg/kg of body weight of Carbadox admixed with the fodder of the pigs were administered to pigs having a live weight of 40 kg. From a population fed with this fodder 27 animals, each weighing exactly 40 kg, were selected, by weighing them separately. The selected animals were railed off in a place suitable for further tests. From this time on (zero time) the animals were given the same fodder as before, except Carbadox.
The 27 animals were divided into three groups as follows:
Group I: 12 animals (ser. Nos. from 1 to 12) slaughtering: three animals each when starting the experiment (0 time) and on the 1st, 5th and 15th days (positive control group) Group II: 9 amimals (ser. Nos. from 13 to 21) treatment: a single 40 mg/kg of body weight dose of flumecinol at zero time. slaughtering: three animals each on the 1st, 5th and 15th days (group treated with a single dose of flumecinol) Group III: 6 animals (ser. Nos. 22 to 27) treatment: 40 mg/kg of body weight of flumecinol for three days, at zero time and on the 1st and 2nd day slaughtering: three animals each on the 5th and 15th days (group treated with flumecinol three times) Flumecinol is available as a micropellet containing 19.02% of active ingredient. From this and a 1% starch hydrolysate a suspension is prepared, containing 40 mg of flumecinol per 1 ml (dose used for one kg of body weight). The active compound was administered 8 o'clock in the morning, without previous fasting, through a stomach tube, in order to ensure exact conditions for the experiments. The animals were killed and samples were taken from 8 to 11 o'clock in the morning, whereupon the samples were transported into the analytical laboratory within one hour, under cooling.
Quinoxaline-2-carboxylic acid (a metabolite of Carbadox) was determined in the chop, liver and kidney tissues of three animals from each group. Each muscle and liver sample was subjected to organoleptic examination also (boiling test).

SMILES: COC(=O)NN=Cc1c[n+]([O-])c2ccccc2[n+]1[O-] [Carbadox, 3-(2-quinoxalinylmethylene)-carbazic acid methyl ester N,N'-dioxide, reference compound]
- unpleasant odor in the liver (Carbadox without flumecinol, liver, 15th day): an unpleasant odor is detected even on the 15th day
- visual observation / organoleptic (odor) score (0 day, chop): 2
- visual observation / organoleptic (odor) score (0 day, ham): 2
- visual observation / organoleptic (odor) score (0 day, liver): 4
- visual observation / organoleptic (odor) score (1st day, chop): 1 and 2
- visual observation / organoleptic (odor) score (1st day, ham): 2 and 1
- visual observation / organoleptic (odor) score (1st day, liver): 4
- visual observation / organoleptic (odor) score (5th day, chop): 1
- visual observation / organoleptic (odor) score (5th day, ham): 1
- visual observation / organoleptic (odor) score (5th day, liver): 3 and 2
- visual observation / organoleptic (odor) score (15th day, chop): 1
- visual observation / organoleptic (odor) score (15th day, ham): 1
- visual observation / organoleptic (odor) score (15th day, liver): 3 and 2
